Data on 3 substances can be found in patent US12351855B2, “Bioelectronic circuits, systems and methods for preparing and using them” (priority 2019, dated 2025).

The nature of data set [1]: STM single-molecule conductance measurement between functionalized Pd probe and substrate. To be noted: for highest conductance feature / maximum conductance: wild type streptavidin captured between electrodes functionalized with thio-biotin (20).
Data set [2] can be described thus: Conductance of biotinylated ϕ29 polymerase wired into streptavidin-functionalized palladium junction. To be noted: thiolated streptavidin on Pd electrodes, 50 mV bias.

In data set [1] (thiolated streptavidin (biotin bound) directly bonded to the metal electrodes), “Thiolated-streptavidin: streptavidin with an average of 2.5 thiols per tetramer, from ProteinMods” showed a maximum conductance of 0.56 nS. The high conductance state in data set [1] (thiolated streptavidin attached to substrate, biotinylated probe (single biotin-mediated contact)) is roughly 7 nS.
With “mono-biotinylated polymerase: exonuclease-inactivated ϕ29 polymerase with N-terminal his-tag and one biotinylated Avitag (SEQ ID NO: 5) (MGSSHHHHHHSSGLVPRGSGLNDIFEAQKIEWHEGASS; biotinylated Avitag)”, the highest conductance feature result in data set [2] was “about 0.7 nS”.
For “Streptavidin: wild type (lacking surface thiols) streptavidin from Sigma Aldrich”, the results for the “highest conductance feature / maximum conductance” value in data set [1] (listed as apo-streptavidin), in data set [1] (listed as streptavidin) and in data set [1] (listed as wild type streptavidin) were roughly 7 nS, 6.8 nS and roughly 7 nS, respectively.
